Binding data for 1 substance are collected here from publication PMC2659799.

Results are given in words; binding and its absence hold for the method and conditions named. Binding seen in cells or lysates may run through a third protein. Some entries that bind do so weakly or less than the wild type.

This test deals with Cellular prion protein (PrP^C) (human (endogenous in plasma microvesicles)) (UniProt P04156). The experiment in a line: co-IP.

Consider “p59Fyn kinase (from UniProt P06241 1-537) (enzyme)”, for which the binding entry is “binds”.
